Tests used:
Format in all cases: cell-based
[1] = test system: RPMI-LR5 cells; experiment: XTT cytotoxicity, RPMI-LR5
Method: (§1) The cytotoxic activity of the novel family was evaluated against various tumor cells, including myeloma cells, acute lymphoblastic leukemia cells, acute monocytic leukemia cells, chronic myelogenous leukemia cells, pancreatic cancer cells, breast cancer cells, uterine sarcoma cells, cervix adenocarcinoma cells, ovary cancer cells, melanoma cells, osteosarcoma cells, prostate cancer cells, lung cancer cells, neuroblastoma cells and colorectal adenocarcinoma cells by XTT assay.

[2] = test system: RPMI-MR20 cells; experiment: XTT cytotoxicity, RPMI-MR20
Method: as §1

[3] = test system: RPMI-DOX40 cells; experiment: XTT cytotoxicity, RPMI-DOX40
Method: as §1

[4] = test system: MM1.S cells; experiment: XTT cytotoxicity, MM1.S; conditions: Homo sapiens
Method: as §1

[5] = test system: MES-SA/DX5 cells; experiment: XTT cytotoxicity, MES-SA/DX5; conditions: Homo sapiens
Method: as §1

[6] = test system: MM1.R cells; experiment: XTT cytotoxicity, MM1.R; conditions: MM.1R
Method: as §1

COc1cc2c(c(OC)c1OC)-c1ccc(OC)c(=O)cc1[C@@H](NC(C)=O)CC2 [Colchicine, reference compound]
IC50 [1]: > 0.06 µM
IC50 [2]: 0.033 µM
IC50 [3]: > 0.06 µM
IC50 [4]: 0.013 µM
IC50 [5]: 0.7 µM
IC50 [6]: 0.27 µM

Source: patent publication US20260226037A1, “MICROTUBULE TARGETING AGENTS” (ARIEL SCIENTIFIC INNOVATIONS LTD., priority 2022, published 2026)
